Results from publication PMC9226075.

Amino acid sequences for entries named in this document (tags omitted).
UniProt Q91Z31: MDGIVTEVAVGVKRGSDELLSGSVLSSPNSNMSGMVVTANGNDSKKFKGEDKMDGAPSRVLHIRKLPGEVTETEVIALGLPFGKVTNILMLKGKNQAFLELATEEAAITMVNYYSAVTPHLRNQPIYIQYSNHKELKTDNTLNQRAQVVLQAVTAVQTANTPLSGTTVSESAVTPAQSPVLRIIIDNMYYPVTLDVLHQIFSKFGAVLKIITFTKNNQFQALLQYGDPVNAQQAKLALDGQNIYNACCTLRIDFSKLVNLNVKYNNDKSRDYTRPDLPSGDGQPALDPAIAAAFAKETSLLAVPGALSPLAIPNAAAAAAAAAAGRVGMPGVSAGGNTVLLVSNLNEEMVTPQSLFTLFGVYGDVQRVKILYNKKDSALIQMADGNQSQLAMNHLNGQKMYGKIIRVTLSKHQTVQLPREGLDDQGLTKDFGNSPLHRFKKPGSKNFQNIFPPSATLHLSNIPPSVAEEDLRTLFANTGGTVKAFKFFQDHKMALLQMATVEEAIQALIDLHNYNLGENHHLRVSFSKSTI
UniProt Q91ZW3: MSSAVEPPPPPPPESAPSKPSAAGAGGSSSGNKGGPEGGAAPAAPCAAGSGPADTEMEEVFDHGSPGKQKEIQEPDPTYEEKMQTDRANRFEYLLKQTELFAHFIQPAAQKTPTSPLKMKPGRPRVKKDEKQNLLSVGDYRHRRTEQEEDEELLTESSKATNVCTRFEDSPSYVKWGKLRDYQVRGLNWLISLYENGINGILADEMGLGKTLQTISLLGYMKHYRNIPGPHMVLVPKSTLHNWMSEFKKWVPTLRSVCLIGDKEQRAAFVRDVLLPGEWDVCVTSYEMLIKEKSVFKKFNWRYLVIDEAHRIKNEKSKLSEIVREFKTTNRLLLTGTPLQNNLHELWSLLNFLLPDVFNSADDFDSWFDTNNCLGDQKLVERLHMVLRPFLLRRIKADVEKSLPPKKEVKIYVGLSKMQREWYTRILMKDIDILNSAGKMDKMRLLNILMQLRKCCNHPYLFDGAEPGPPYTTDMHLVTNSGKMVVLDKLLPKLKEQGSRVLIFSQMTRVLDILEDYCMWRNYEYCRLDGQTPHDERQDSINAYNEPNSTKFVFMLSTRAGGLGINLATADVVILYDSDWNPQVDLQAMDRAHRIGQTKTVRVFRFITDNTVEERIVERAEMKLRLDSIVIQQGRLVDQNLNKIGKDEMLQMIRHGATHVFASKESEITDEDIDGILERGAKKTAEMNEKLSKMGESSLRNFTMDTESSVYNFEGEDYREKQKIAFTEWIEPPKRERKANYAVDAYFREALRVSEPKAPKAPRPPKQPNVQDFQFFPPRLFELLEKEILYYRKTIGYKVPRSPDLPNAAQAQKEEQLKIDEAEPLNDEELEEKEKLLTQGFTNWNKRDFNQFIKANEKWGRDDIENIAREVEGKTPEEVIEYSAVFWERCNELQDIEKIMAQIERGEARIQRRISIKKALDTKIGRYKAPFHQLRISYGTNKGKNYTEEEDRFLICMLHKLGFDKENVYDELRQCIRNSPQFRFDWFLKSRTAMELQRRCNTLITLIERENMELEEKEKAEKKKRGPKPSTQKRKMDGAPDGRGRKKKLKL

T1: hnRNPH1 (mouse (endogenous in testis and ovary)) (UniProt O35737)
T1 sequence: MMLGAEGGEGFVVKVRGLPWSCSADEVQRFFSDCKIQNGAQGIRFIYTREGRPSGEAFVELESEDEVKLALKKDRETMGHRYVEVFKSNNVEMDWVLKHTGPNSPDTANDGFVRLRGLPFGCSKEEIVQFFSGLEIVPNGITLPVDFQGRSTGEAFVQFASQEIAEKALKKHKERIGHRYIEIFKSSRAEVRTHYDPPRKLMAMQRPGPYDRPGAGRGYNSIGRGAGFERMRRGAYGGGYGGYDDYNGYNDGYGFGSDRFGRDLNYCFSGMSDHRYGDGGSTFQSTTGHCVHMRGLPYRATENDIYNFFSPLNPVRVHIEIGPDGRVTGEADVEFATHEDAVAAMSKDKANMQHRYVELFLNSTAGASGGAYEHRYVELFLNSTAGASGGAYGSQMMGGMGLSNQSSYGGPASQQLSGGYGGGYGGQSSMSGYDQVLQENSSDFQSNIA

B1: SRSF3 (protein, UniProt P84104 1-164)
chain: MHRDSCPLDCKVYVGNLGNNGNKTELERAFGYYGPLRSVWVARNPPGFAFVEFEDPRDAADAVRELDGRTLCGCRVRVELSNGEKRSRNRGPPPSWGRRPRDDYRRRSPPPRRRSPRRRSFSRSRSRSLSRDRRRERSLSRERNHKPSRSFSRSRSRSRSNERK
B2: Cirbp (protein, UniProt P60824 1-172)
chain: MASDEGKLFVGGLSFDTNEQALEQVFSKYGQISEVVVVKDRETQRSRGFGFVTFENIDDAKDAMMAMNGKSVDGRQIRVDQAGKSSDNRSRGYRGGSAGGRGFFRGGRSRGRGFSRGGGDRGYGGGRFESRSGGYGGSRDYYASRSQGGSYGYRSSGGSYRDSYDSYATHNE

Molecular target: T1, hnRNPH1 (mouse (endogenous in testis and ovary))
Assay: affinity purification with mass spectrometry; IP-MS with the hnRNPH1 antibody from wild-type adult mouse testes

Molecule	binding
PTBP2 (from UniProt Q91Z31 1-531)	binds
Smarca5 (from UniProt Q91ZW3 1-1051)	binds
B1	binds
B2	binds

No constants are given. Whether binding was seen depends on the method and setting. In cells and extracts the contact can be indirect. A yes stands for co-enrichment or nearness to the bait. Other partners may have been found.
